This passage reports binding results from paper PMC4200280.

Amino acid sequences for entries named in this document (tags omitted).
UniProt P15790: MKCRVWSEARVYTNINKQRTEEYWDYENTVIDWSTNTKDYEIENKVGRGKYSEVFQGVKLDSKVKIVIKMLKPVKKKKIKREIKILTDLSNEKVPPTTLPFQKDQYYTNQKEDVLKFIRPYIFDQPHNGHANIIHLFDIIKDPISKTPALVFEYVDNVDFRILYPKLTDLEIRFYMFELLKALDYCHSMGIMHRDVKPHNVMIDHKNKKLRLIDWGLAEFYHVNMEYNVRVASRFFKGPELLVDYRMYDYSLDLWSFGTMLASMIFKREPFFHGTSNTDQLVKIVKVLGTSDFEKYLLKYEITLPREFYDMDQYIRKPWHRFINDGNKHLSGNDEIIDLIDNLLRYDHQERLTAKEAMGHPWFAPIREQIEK

No constants are given. Whether binding was seen depends on the method and setting. Binding seen in cells or lysates may run through a third protein. A yes stands for co-enrichment or nearness to the bait. Other partners may have been found. For some assays here: Tags and fused reporters may be left off the sequences shown.

Test [1] deals with T1, Psh1-TAP (budding yeast) (UniProt Q12161).
T1 sequence: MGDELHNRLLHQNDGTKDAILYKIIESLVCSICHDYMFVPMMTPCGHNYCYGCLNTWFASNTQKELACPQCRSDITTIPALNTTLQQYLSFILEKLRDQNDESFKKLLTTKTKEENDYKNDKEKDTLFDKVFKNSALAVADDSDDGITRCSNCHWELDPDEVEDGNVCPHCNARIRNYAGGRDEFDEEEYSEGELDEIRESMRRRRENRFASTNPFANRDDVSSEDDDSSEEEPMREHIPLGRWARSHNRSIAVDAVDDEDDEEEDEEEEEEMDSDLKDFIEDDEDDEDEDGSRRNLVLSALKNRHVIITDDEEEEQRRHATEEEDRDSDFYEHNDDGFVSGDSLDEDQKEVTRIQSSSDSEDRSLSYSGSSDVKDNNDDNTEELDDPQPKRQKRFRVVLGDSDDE
The test is described as follows: affinity purification with mass spectrometry; Psh1-TAP affinity-purified from yeast (method adopted from Puig et al.), samples analysed by MS.

The target of test [2] is T2, Dsn1-FLAG (budding yeast) (UniProt P40568).
T2 sequence: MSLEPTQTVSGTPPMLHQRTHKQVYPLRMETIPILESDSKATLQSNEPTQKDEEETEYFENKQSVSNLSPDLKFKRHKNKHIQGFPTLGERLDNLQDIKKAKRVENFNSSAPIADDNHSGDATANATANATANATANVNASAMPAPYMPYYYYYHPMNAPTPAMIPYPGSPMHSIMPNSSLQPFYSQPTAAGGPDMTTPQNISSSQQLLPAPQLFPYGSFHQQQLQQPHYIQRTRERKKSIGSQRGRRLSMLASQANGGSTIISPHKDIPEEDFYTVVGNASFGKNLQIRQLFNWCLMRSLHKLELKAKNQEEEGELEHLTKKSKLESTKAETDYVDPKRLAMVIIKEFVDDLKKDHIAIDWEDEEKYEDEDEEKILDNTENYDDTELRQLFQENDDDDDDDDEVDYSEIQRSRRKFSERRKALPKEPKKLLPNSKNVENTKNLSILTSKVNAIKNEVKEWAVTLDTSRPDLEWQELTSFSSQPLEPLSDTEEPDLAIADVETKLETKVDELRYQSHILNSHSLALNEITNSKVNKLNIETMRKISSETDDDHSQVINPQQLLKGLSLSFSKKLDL
The test is described as follows: affinity purification with mass spectrometry; kinetochore purification by Dsn1-FLAG from WT and cka2Δ yeast (protocol adopted from Akiyoshi et al.), MS analysis.

Consider “Cka1, catalytic subunit of casein kinase 2 (CK2) (from UniProt P15790 1-372) (enzyme)”, for which the binding result in test [1] is “binds”.

B1: Psh1 (centromere/kinetochore-associated, found in the Dsn1-FLAG purification) (enzyme, UniProt Q12161 1-406)
chain: MGDELHNRLLHQNDGTKDAILYKIIESLVCSICHDYMFVPMMTPCGHNYCYGCLNTWFASNTQKELACPQCRSDITTIPALNTTLQQYLSFILEKLRDQNDESFKKLLTTKTKEENDYKNDKEKDTLFDKVFKNSALAVADDSDDGITRCSNCHWELDPDEVEDGNVCPHCNARIRNYAGGRDEFDEEEYSEGELDEIRESMRRRRENRFASTNPFANRDDVSSEDDDSSEEEPMREHIPLGRWARSHNRSIAVDAVDDEDDEEEDEEEEEEMDSDLKDFIEDDEDDEDEDGSRRNLVLSALKNRHVIITDDEEEEQRRHATEEEDRDSDFYEHNDDGFVSGDSLDEDQKEVTRIQSSSDSEDRSLSYSGSSDVKDNNDDNTEELDDPQPKRQKRFRVVLGDSDDE
For B1, the binding entry in test [2] is “binds”.

B2: Cka2, catalytic subunit of casein kinase 2 (CK2) (enzyme, UniProt P19454 1-339)
chain: MPLPPSTLNQKSNRVYSVARVYKNACEERPQEYWDYEQGVTIDWGKISNYEIINKIGRGKYSEVFSGRCIVNNQKCVIKVLKPVKMKKIYRELKILTNLTGGPNVVGLYDIVQDADSKIPALIFEEIKNVDFRTLYPTFKLPDIQYYFTQLLIALDYCHSMGIMHRDVKPQNVMIDPTERKLRLIDWGLAEFYHPGVDYNVRVASRYHKGPELLVNLNQYDYSLDLWSVGCMLAAIVFKKEPFFKGSSNPDQLVKIATVLGTKELLGYLGKYGLHLPSEYDNIMRDFTKKSWTHFITSETKLAVPEVVDLIDNLLRYDHQERLTAKEAMDHKFFKTKFE
As to B2, the binding result in test [1] is on record as “binds”.

B3: Ckb1, regulatory subunit of casein kinase 2 (CK2) (protein, UniProt P43639 1-278)
chain: MSQEFVEDYSRTGSSDDEDSGAYDEWIPSFCSRFGHEYFCQVPTEFIEDDFNMTSLSQEVPHYRKALDLILDLEAMSDEEEDEDDVVEEDEVDQEMQSNDGHDEGKRRNKSPVVNKSIIEHAAEQLYGLIHARFILTKPGLQAMAEKFDHKEFGTCPRYYCNGMQLLPCGLSDTVGKHTVRLYCPSCQDLYLPQSSRFLCLEGAFWGTSFPGVFLKHFKELEEYVERKSKESYELKVFGFRINDEAVSGPRMKWLRQYPSTEEDWEEFAKCEFETPAV
On to B3, for which the binding result in test [1] is “binds”.

B4: Ckb2, regulatory subunit of casein kinase 2 (CK2) (protein, UniProt P38930 1-258)
chain: MGSRSENVGTVTREGSRVEQDDVLMDDDSDSSEYVDMWIDLFLGRKGHEYFCDVDPEYITDRFNLMNLQKTVSKFSYVVQYIVDDLDDSILENMTHARLEQLESDSRKLYGLIHARYIITIKGLQKMYAKYKEADFGRCPRVYCNLQQLLPVGLHDIPGIDCVKLYCPSCEDLYIPKSSRHSSIDGAYFGTSFPGMFLQAFPDMVPKHPTKRYVPKIFGFELHKQAQLTRWQELQRLKLVEKLESKDVDLTKSGGFKT
Take B4: in test [1], the binding entry was “binds”.
